According to PMC4416881, “Regulation of Active DNA Demethylation by a Methyl-CpG-Binding Domain Protein in Arabidopsis thaliana” (PLoS Genetics, 2015):
Results are given in words; binding and its absence hold for the method and conditions named. A result given as binding can be weak or reduced; the word gives no strength. Where a sequence is shown, tags or fusion partners need not be part of it.

B1: IDL1 (yeast two-hybrid fusion) (protein, UniProt Q9SYQ0 1-463)
chain: MSLYSDGLSSDQYFLVNFIMSNYLGPDVYSDNPRCSSSQRLARGLPPYTLMHIGSSSLTVSQLQNLYYNVLRNAKSSLLLHPDMIYMYLKGYLPLEPSGKFPQFTHFFPTNLHPQKRYSPSHEIVKGIVVIDDPAVGFINKEELQRFRCLSRLDDLKIDRVTSLSPRVNLDESRETEQDCSRNGDATANGVVTNEDYNSSGELQETCKRKEGEDAVASCVISEPERLSGDIPESQGMKQDCSRNGESAFSGIVSDQDYYSFVKLPETCKRKNKEEEAVTGHAVSGTSKTPERFRETYKRRRFKNSSKKATNKNGETLMEREKTDKPIPFSSEMKESDAEPSVVTTGTASKETLGSSVGVVDIGVNKVAYFFQVALPGVRKDYGEFSCEIESDGKVILEGSTTRGEKNIKRHSRVFEMNIRKLCPPGPFKLCFNLPGPVDPRLFSPNFRSDGIFEGVIIRHKNS
B2: IDM2 (yeast two-hybrid fusion) (protein, UniProt Q8RWL4 1-349)
chain: MSDTMPEIVSPLVAENSQEQEESVLISLDIEEDKLFLLHFIIGTYFGPDLRKQHHRPKQSAFQIQALKNVVVDELSGSLMKRAELERVYYHIIRNVDPSLVMKPKKLREYFNAKRNDSNRDYPLFVDLFPRKLHPETHVRHKFKFIRSIVFINDPDTSCMREECVARFKRLTGLDSFALSLSVDVTKSNGVVAANEVKVEIDESVEPVKEDNAGTCTSGEESDVAAKPEVKSEAHGGLMVGLMDIGECDDAYLFRVSLPGVKRDERYFSCEVEDNGKVLVRGVTTTGGKRVKRYSHVFEMQTRSLCPPGNFSVSFRLPGPVHPHEFSGNFGTDGILEGVVMKNLQKQTV

Key:
[1] = target: C-terminal of IDM1 (yeast two-hybrid fusion) (Arabidopsis thaliana); assay: two-hybrid; pGBK-T7 (BD) and pGAD-T7 (AD) fusions in yeast AH109; growth on medium lacking Leu, Trp, Ade and His
[2] = target: N-terminal of IDM1 (yeast two-hybrid fusion) (Arabidopsis thaliana); assay: as above

Binder | binding [1] | binding [2]
B1 | binds | 
B2 |  | binds
